Measurements as given in the supplement of paper PMC6078165.

Test system: Hs578T
Assay: relative JC-1 red fluorescence (viability) vs pre-drug, coculture with fibroblast (fraction); higher = more viable cancer cells
Experimental: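 JC-1 labelled TNBC cells cocultured 1:1 (1,500 cells each) with CellTrace Violet stained primary or stromal fibroblasts in 384-well plates in FluoroBrite medium, treated with one of 42 anticancer drugs at 0.1, 1, 10 or 100 uM. JC-1 red fluorescence (mitochondrial integrity in cancer cells only) was read by plate reader every 8 h for 72 h. Values are normalised to each well's pre-drug value. The stock of one drug was tenfold lower, so its dose labels may be too high.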

COc1cc([C@@H]2c3cc4c(cc3[C@@H](O[C@@H]3O[C@@H]5CO[C@@H](C)O[C@H]5[C@H](O)[C@H]3O)[C@H]3COC(=O)[C@H]23)OCO4)cc(OC)c1O [Etoposide]
relative JC-1 red fluorescence
Details | 8 h | 16 h | 24 h | 32 h | 40 h | 48 h | 56 h | 64 h | 72 h
0.1 µM | 0.926 | 0.811 | 0.696 | 0.632 | 0.553 | 0.504 | 0.467 | 0.42 | 0.403
1 µM | 0.868 | 0.757 | 0.686 | 0.624 | 0.561 | 0.517 | 0.504 | 0.4721 | 0.464

relative JC-1 red fluorescence
Details | 8 h | 16 h | 24 h | 32 h | 40 h | 48 h | 56 h | 64 h | 72 h
0.1 µM, coculture fibroblast: C12385 | 0.805 | 0.702 | 0.684 | 0.584 | 0.536 | 0.521 | 0.5049 | 0.50661 | 0.5174
0.1 µM, coculture fibroblast: H6013 | 0.8528 | 0.813 | 0.772 | 0.749 | 0.726 | 0.72 | 0.703 | 0.706 | 0.682
0.1 µM, coculture fibroblast: H6019 | 0.787 | 0.685 | 0.666 | 0.573 | 0.538 | 0.515 | 0.485 | 0.47 | 0.449
0.1 µM, coculture fibroblast: H6076 | 0.8979 | 0.842 | 0.83 | 0.813 | 0.785 | 0.787 | 0.771 | 0.781 | 0.783
0.1 µM, coculture fibroblast: H6231 | 0.884 | 0.782 | 0.737 | 0.688 | 0.618 | 0.592 | 0.549 | 0.538 | 0.527
0.1 µM, coculture fibroblast: HADF | 0.882 | 0.822 | 0.7423 | 0.6778 | 0.627 | 0.594 | 0.558 | 0.552 | 0.529
0.1 µM, coculture fibroblast: HCFa | 0.8168 | 0.735 | 0.6591 | 0.5883 | 0.522 | 0.4946 | 0.454 | 0.438 | 0.405
0.1 µM, coculture fibroblast: HCPF | 0.921 | 0.834 | 0.766 | 0.7302 | 0.6649 | 0.643 | 0.624 | 0.59 | 0.578
0.1 µM, coculture fibroblast: HHSteC | 0.86015 | 0.799 | 0.7425 | 0.6848 | 0.625 | 0.582 | 0.555 | 0.5312 | 0.4948
0.1 µM, coculture fibroblast: HMF | 0.9247 | 0.852 | 0.774 | 0.74 | 0.67 | 0.633 | 0.5952 | 0.572 | 0.554
0.1 µM, coculture fibroblast: HPFa | 0.878 | 0.788 | 0.724 | 0.664 | 0.63 | 0.601 | 0.565 | 0.547 | 0.515
0.1 µM, coculture fibroblast: HUF | 0.854 | 0.743 | 0.725 | 0.623 | 0.569 | 0.543 | 0.516 | 0.514 | 0.516
0.1 µM, coculture fibroblast: Hs27A | 0.8659 | 0.79 | 0.734 | 0.696 | 0.641 | 0.628 | 0.599 | 0.588 | 0.551
0.1 µM, coculture fibroblast: Hs343T | 0.923 | 0.82 | 0.7496 | 0.711 | 0.627 | 0.596 | 0.547 | 0.528 | 0.528
0.1 µM, coculture fibroblast: WS1 | 0.784 | 0.677 | 0.627 | 0.532 | 0.477 | 0.459 | 0.435 | 0.436 | 0.44
1 µM, coculture fibroblast: C12385 | 0.791 | 0.68 | 0.669 | 0.571 | 0.514 | 0.493 | 0.48 | 0.489 | 0.501
1 µM, coculture fibroblast: H6013 | 0.887 | 0.825 | 0.77 | 0.744 | 0.713 | 0.695 | 0.666 | 0.646 | 0.60888
1 µM, coculture fibroblast: H6019 | 0.76 | 0.683 | 0.669 | 0.583 | 0.556 | 0.535 | 0.509 | 0.493 | 0.474
1 µM, coculture fibroblast: H6076 | 0.853 | 0.777 | 0.741 | 0.7265 | 0.689 | 0.688 | 0.683 | 0.677 | 0.684
1 µM, coculture fibroblast: H6231 | 0.8905 | 0.766 | 0.7199 | 0.6723 | 0.609 | 0.582 | 0.541 | 0.519 | 0.515
1 µM, coculture fibroblast: HADF | 0.834 | 0.779 | 0.716 | 0.672 | 0.646 | 0.624 | 0.593 | 0.589 | 0.5724
1 µM, coculture fibroblast: HCFa | 0.82 | 0.756 | 0.679 | 0.61 | 0.555 | 0.524 | 0.486 | 0.47 | 0.432
1 µM, coculture fibroblast: HCPF | 0.877 | 0.792 | 0.735 | 0.694 | 0.627 | 0.6 | 0.584 | 0.544 | 0.531
1 µM, coculture fibroblast: HHSteC | 0.851 | 0.786 | 0.721 | 0.664 | 0.605 | 0.569 | 0.547 | 0.521 | 0.489
1 µM, coculture fibroblast: HMF | 0.8729 | 0.776 | 0.709 | 0.682 | 0.619 | 0.592 | 0.559 | 0.532 | 0.5111
1 µM, coculture fibroblast: HPFa | 0.883 | 0.8091 | 0.7494 | 0.7 | 0.663 | 0.636 | 0.587 | 0.563 | 0.517
1 µM, coculture fibroblast: HUF | 0.821 | 0.69 | 0.65 | 0.5351 | 0.468 | 0.438 | 0.418 | 0.417 | 0.424
1 µM, coculture fibroblast: Hs27A | 0.884 | 0.8083 | 0.785 | 0.754 | 0.707 | 0.713 | 0.675 | 0.6755 | 0.641
1 µM, coculture fibroblast: Hs343T | 0.8762 | 0.763 | 0.7156 | 0.67802 | 0.606 | 0.576 | 0.5531 | 0.532 | 0.5306
1 µM, coculture fibroblast: WS1 | 0.806 | 0.719 | 0.687 | 0.588 | 0.528 | 0.525 | 0.506 | 0.513 | 0.526

The reference is the same well before dosing, and untreated signal decays as well.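 Fibroblast labels name human fibroblasts: mostly primary ones from tissues such as uterus (C12385, HUF), lung (H6013), bone (Hs27A), adrenal (HADF) and skin (WS1), plus mammary HMF and breast cancer-associated Hs343T. The cancer cells are basal-like or mesenchymal-like triple-negative breast cancer lines. The paper calls a changed response a hit when it shifts by more than 3x the replicate standard deviation. The tissue of the other fibroblasts is not given here.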
